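Vaccinia-infected cells with a two-color viral stage reporter; Venus fluorescence read on a plate reader; the cell line is not named here; timing not stated here.
The test concentration is not given here.
Percent change in Venus reporter signal; lower (more negative) values mean stronger inhibition of that viral stage.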

Values are in %.
The controls that fix the scale are not given here.
Common to all entries: measured here: Venus reporter, other viral stage.
Part of the compounds only, not a random draw; the main read-out is not listed here.

compound | activity change (Venus) (%)
Fc1ccc(-c2ccc(C3[C@@H]4CN(Cc5cccc(F)c5)C[C@H]3N4)cc2)cc1 (stereo partly drawn) | -47.32
COc1ccc(C#Cc2ccc([C@H]3[C@@H](CO)N4CCCCN(C(=O)Cc5ccccc5)C[C@H]34)cc2)cc1 | -33.62
COc1cccc(C#Cc2ccc([C@@H]3[C@H](CO)N4C(=O)CN(C(=O)Cc5cccnc5)C[C@@H]34)cc2)c1 | -31.1
C/C=C/c1ccc([C@@H]2[C@H]3CN(C(=O)Nc4ccc(OC)cc4)CCCCN3[C@H]2CO)cc1 | -35.97
C[C@H]1CN([C@@H](C)CO)C(=O)c2c(c3ccccc3n2C)-c2ccccc2CO[C@@H]1CN(C)Cc1cccc(O)c1 | -56.76
Cc1ccc(S(=O)(=O)N2C[C@@H](O)COC[C@@H]3O[C@@H](CC(=O)NCc4ccc(Cl)c(Cl)c4)CC[C@H]32)cc1 | -59.66
C=C1CC(c2ccc(-c3ccccc3)cc2)OC1=O (stereo not drawn) | -36.67
O=C(C[C@@H]1C[C@H]2c3cc(NS(=O)(=O)c4ccc(F)cc4)ccc3O[C@H]2[C@@H](CO)O1)NCc1ccc(Oc2ccccc2)cc1 | -76.6
CCOC(=O)[C@@H]1[C@@H]2C=C[C@]3(O2)[C@H](C(=O)NCc2ccccc2)N(CCCCCCO)C(=O)[C@@H]13 | -37.89
Cc1ccc(-c2ccc([C@@H]3[C@@H](CO)N4C(=O)CN(C(=O)Nc5cccc(F)c5)C[C@@H]34)cc2)cc1 | -75.61
O=C(C[C@H]1CC[C@H]2[C@@H](COC[C@@H](O)CN2Cc2ccc(Oc3ccccc3)cc2)O1)N1CCN(c2ccccc2)CC1 | -35.48
C[C@@H]1CN([C@@H](C)CO)C(=O)Cc2cc(NS(=O)(=O)c3ccccc3)ccc2O[C@H]1CN(C)Cc1ccc(-c2ccccc2)cc1 | -57.94
C[C@@H]1CN([C@H](C)CO)S(=O)(=O)c2ccc(C3=CCCCC3)cc2O[C@@H]1CN(C)C(=O)Nc1ccc2c(c1)OCO2 | -45.86
C[C@@H]1CCCCO[C@@H](CN(C)Cc2ccc(C(F)(F)F)cc2)[C@@H](C)CN([C@@H](C)CO)C(=O)c2cc(NC(=O)CCC(F)(F)F)ccc2O1 | -61.06
C[C@@H]1CN([C@@H](C)CO)C(=O)c2cc(NC(=O)c3ccncc3)ccc2O[C@@H]1CN(C)Cc1ccncc1 | -18.98
C[C@H](CO)N1C[C@H](C)[C@@H](CN(C)Cc2ccccc2)OCCCC[C@H](C)Oc2ccc(NC(=O)Nc3ccccc3)cc2C1=O | -26.16
O=C(C[C@@H]1CC[C@@H]2[C@H](COC[C@H](O)CN2CC2CCCC2)O1)NCc1ccc(Cl)cc1 | -34.43
C/C=C/c1ccc([C@H]2[C@@H](CO)N3C(=O)CN(Cc4ccc(F)cc4)C[C@H]23)cc1 | -30.11
COc1ccccc1C#Cc1ccc([C@@H]2[C@H](CO)N3CCCCN(CCC(F)(F)F)C[C@@H]23)cc1 | -24.3
Cc1cc(C(=O)Nc2ccc3c(c2)C(=O)N(C)[C@@H]2CC[C@H](CC(=O)NCc4ccc(-c5ccccc5)cc4)O[C@H]2CO3)no1 | -28.41
COc1cccc(NC(=O)N(C)C[C@@H]2OCc3ccccc3-c3c(n(C)c4ccccc34)C(=O)N([C@@H](C)CO)C[C@H]2C)c1 | -47.15
C[C@@H]1CN([C@@H](C)CO)C(=O)c2cc(NS(=O)(=O)c3ccccc3)ccc2O[C@H]1CN(C)Cc1ccc(-c2ccccc2)cc1 | -36.98
COc1ccc([Si](C)(C)[C@@H]2[C@@H](CCO)O[C@]3(C(=O)N(C)c4ccccc43)[C@H]2C)cc1 | -52.99
O=C(Nc1ccccc1)N1CCCCN2[C@H](C1)[C@@H](c1ccc(C#CC3CC3)cc1)[C@@H]2CO | -49.05
C[C@H]1CN([C@@H](C)CO)C(=O)c2ccccc2-c2ccccc2CO[C@H]1CN(C)Cc1cccc(F)c1 | -33.11
COc1ccc(CN(C)C[C@@H]2OCCCC[C@H](C)Oc3ccc(NC(=O)Nc4cccc5ccccc45)cc3C(=O)N([C@H](C)CO)C[C@@H]2C)cc1 | -30.2
Cc1noc(C)c1S(=O)(=O)Nc1ccc2c(c1)C(=O)N([C@H](C)CO)C[C@@H](C)[C@@H](CN(C)Cc1ccc3c(c1)OCO3)OCCCC[C@@H](C)O2 | -36.21
O=C(Nc1ccc(Cl)cc1)N1C[C@@H]2[C@H](c3ccccc31)[C@@H](CO)N2CC1CCCC1 | -43.39
C[C@H]1CN([C@@H](C)CO)S(=O)(=O)c2ccc(C#Cc3ccncc3)cc2O[C@@H]1CN(C)C(=O)C1CCOCC1 | -46.57
COc1ccccc1NC(=O)N1CCCCN2[C@@H](CO)[C@H](c3ccc(-c4ccccc4)cc3)[C@@H]2C1 | -52.78
COc1ccccc1C#Cc1ccc2c(c1)O[C@@H](CN(C)C)[C@H](C)CN([C@H](C)CO)S2(=O)=O | -63.92
C[C@@H]1CN([C@@H](C)CO)C(=O)Cc2cc(NC(=O)Cc3cn(C)c4ccccc34)ccc2O[C@@H]1CN(C)Cc1ccc(Cl)c(Cl)c1 | -47.86
COc1ccc([Si](C)(C)[C@H]2[C@H](CCn3cc(CCO)nn3)O[C@@]3(C(=O)N(Cc4cccc(N5CCC5=O)c4)c4ccccc43)[C@@H]2C)cc1 | -59.17
COc1cc2c(cc1OC)CN(C(=O)[C@H]1[C@@H]3C(=O)O[C@@H](c4ccccc4)[C@@H](c4ccccc4)N3[C@@H](c3ccccc3OCCO)[C@]13C(=O)Nc1ccc(C#CC4(O)CCCCCC4)cc13)CC2 | -23.18
C[C@H](CO)N1C[C@H](C)[C@H](CN(C)Cc2ccc(Oc3ccccc3)cc2)Oc2ccc(NC(=O)CCCN(C)C)cc2C1=O | -37.64
COc1ccc2c3c(n(C)c2c1)[C@@H](CO)NCC31CCN(Cc2cc(-c3ccccc3)on2)CC1 | -38.64

4 of the entries, repeated:

compound,activity change (Venus) (%)
COc1ccccc1NC(=O)N1CCCCN2[C@@H](CO)[C@H](c3ccc(-c4ccccc4)cc3)[C@@H]2C1,-52.78
Fc1ccc(-c2ccc(C3[C@@H]4CN(Cc5cccc(F)c5)C[C@H]3N4)cc2)cc1 (stereo partly drawn),-47.32
C/C=C/c1ccc([C@H]2[C@@H](CO)N3C(=O)CN(Cc4ccc(F)cc4)C[C@H]23)cc1,-30.11
COc1ccc(C#Cc2ccc([C@H]3[C@@H](CO)N4CCCCN(C(=O)Cc5ccccc5)C[C@H]34)cc2)cc1,-33.62

The results are deposited in PubChem (AID1053133; Broad Institute, 2014).